Reference: PubChem BioAssay AID1688 (National Center for Advancing Translational Sciences (NCATS), 2009)
About 2,400 (1.1%) of roughly 220,000 compounds were called active. The inconclusive results got no clear call from the source; some entries with a clear call stand among them for comparison. The call rests on the fitted dose curve; in most records, active means well fitted inhibition curve with a large enough effect; inconclusive means small, poorly fitted or top-dose-only effect, or effect the other way; inactive means no such curve, though single readings can be large or run the other way. Where the call is inconclusive, the potency comes from a doubtful curve fit.

Assay: qHTS Multiplex Assay to Identify Dual Action Probes in a Cell Model of Huntington: Aggregate Formation (GFP); further: nearly all actives have a fitted effect of over 60% in size
Conditions: PC12 HttQ103-GFP aggregates, Acumen cytometry, 40 h; activity change, negative = inhibition: at 46.1 µM (top of the series) unless noted
In short: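 Compounds (qHTS titration) were added to PC12 cells expressing an ecdysone-driven HTT exon 1 Q103–GFP fusion after induction with 100 nM tebufenozide. Aggregate formation was measured as GFP objects in cell lysates.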
On the % scale 0 is the no-effect control and ±100 the full control effect; potency means the concentration at half of the fitted maximal effect.

SMILES | Potency | activity change, negative = inhibition
CC1(C)CC(N2CCN(c3ccccc3)CC2)=CC(=[N+]2CCCC2)C1 | active: 3.98 µM | 
Cc1ccc(C(=O)c2cnc3ccccc3c2-c2ccccc2)cc1 | inconclusive: 22.4 µM [inhibitor, single point] | 
CN1C2CCC1/C(=C\c1ccc(F)cc1)C(=O)/C2=C/c1ccc(F)cc1 | inconclusive: 12.6 µM [activator, partial curve] | 
CCOc1cc(NC2CS(=O)(=O)CC2O)c(OCC)cc1NC(=O)c1ccccc1 (stereo unspecified) | inactive | 
Cc1[nH]n(C2=NCCS2)c(=O)c1N=Nc1cccc(C(F)(F)F)c1 | inconclusive: 6.31 µM [inhibitor, single point] | 
Oc1ccc(/C=N/n2cnn(Cc3ccccc3Cl)c2=S)c(O)c1 | inactive | 
Nc1ccc(O)cc1C(=O)OCC(=O)c1ccc(C2CCCCC2)cc1 | inconclusive: 5.62 µM [activator, single point] | 
c1ccc2c(c1)CCN(c1ncnc3c1[nH]c1ccccc13)C2 | active: 11.2 µM | 
Cc1cc(NC(=S)N(CCN2CCCCC2)Cc2ccco2)ccc1Cl | inconclusive: 17.8 µM [inhibitor, single point] | 
O=C(Nc1nccs1)c1c(O)c2c([nH]c1=O)CCCC2 |  | inactive: 22.6% [at 9.22 µM]
COc1ccc(NS(=O)(=O)c2cc(NC(=O)c3cccc(OCc4c(C)noc4C)c3)ccc2OC)cc1 | inconclusive: 5.62 µM [activator, single point] | 
c1ccc(OCc2nn3c(Cn4nnc5ccccc54)nnc3s2)cc1 | inactive | 
O=C(CSc1nnc(CNC(=O)c2ccccc2F)o1)NCCc1ccccc1 | inactive | 
O=C(c1cc2cc([N+](=O)[O-])ccc2oc1=O)N1CCOCC1 |  | inactive: -12.4% [at 9.22 µM]
CCOc1ccc2nc(C(C)O)[nH]c2c1 (stereo unspecified) | inconclusive: 5.62 µM [inhibitor, single point] | 
CCOc1ccc(C(=O)NCC(=O)OCC(=O)Nc2cccc(S(=O)(=O)N3CCCC3)c2)cc1 |  | inactive: -17.8% [at 9.22 µM]
COC(=O)c1ccc(C)c(NC(=O)CCc2cc(OC)c(OC)c(OC)c2)c1 | inactive | 
CC(C)COc1ccc(-c2cc(C(=O)NN)[nH]n2)cc1 | inconclusive: 35.5 µM [inhibitor, single point] | 
CCN1C(=O)c2cccc3c(S(=O)(=O)Nc4ccc(OC)cc4OC)ccc1c23 | inconclusive: 12.6 µM [inhibitor, single point] | 
CCOC(=O)c1ccccc1NC(=O)c1cccnc1 | inactive | 
COc1ccc(-c2nnc(SCc3cc(C)cc(C)c3)o2)cc1 | inconclusive: 25.1 µM [inhibitor, partial curve] | 
CCOC(=O)N1CCN(C(=O)COc2cccc3c2CCN(CC)C3=O)CC1 | inconclusive: 1.26 µM [activator, single point] | 
CCCCCN1C=CC=C/C1=C\C=C(C#N)C#N |  | inactive: -5.37% [at 9.22 µM]

Looked up by structure from the entries so far (2):
SMILES | Potency | activity change, negative = inhibition
Cc1ccc(C(=O)c2cnc3ccccc3c2-c2ccccc2)cc1 | inconclusive: 22.4 µM [inhibitor, single point] | 
COC(=O)c1ccc(C)c(NC(=O)CCc2cc(OC)c(OC)c(OC)c2)c1 | inactive | 

Following part:

SMILES | Potency | activity change, negative = inhibition
CN(C)c1cc(Nc2ccc(O)cc2)c([N+](=O)[O-])c2nonc12 |  | inactive: -15.9% [at 9.22 µM]
CC1(C)CN=c2s/c(=C\c3ccc(Cl)cc3)c(=O)n2C1 | inconclusive: 15.8 µM [inhibitor, single point] | 
O=C(COC(=O)c1cc(S(=O)(=O)N2CCOCC2)ccc1Cl)Nc1ccc2c(c1)OCO2 | inactive | 
CCC(C)c1ccccc1NC(=S)Nc1cccnc1 (stereo unspecified) | inconclusive: 3.16 µM [activator, partial curve] | 
O=C(CCn1c(=O)oc2ccccc21)NCCN1CCOCC1 |  | inactive: 8.27% [at 9.22 µM]
O=C(Nc1ccc(Cl)cc1)N1CCC(c2nc(-c3ccccc3Cl)no2)CC1 | active: 11.2 µM | 
CC1CN(c2nc3ccccc3nc2C(C#N)C(=O)NC2CCCCC2)CC(C)O1 (stereo unspecified) | inactive | 
O=C(Nc1ccccc1)N1CCCc2ccccc21 | inactive | 
O=C(c1ccccc1)N1CCN(C(=O)c2ccccc2)CC1 | inactive | 
COc1ccc(C(=O)N/N=C/c2cc(Br)ccc2O)cc1OC | inconclusive: 3.98 µM [inhibitor, single point] | 
CC(C)Cn1c(/C=C/c2ccccc2)nc2ccccc21 | inconclusive: 2.51 µM [inhibitor, single point] | 
c1csc(-c2nnc(NC3CCCCC3)c3ccccc23)c1 | inconclusive: 6.31 µM [inhibitor, full curve, poor fit] | 
Cc1ccc(-c2nn(C(C)(C)C)c3ncnc(N)c23)cc1 | inconclusive: 10 µM [inhibitor, partial curve] | 
O=C(/C=C/c1ccc2c(c1)OCO2)Nc1nc2ccc(F)cc2s1 |  | inactive: 2.24% [at 9.22 µM]
Cc1ccc(NC(=O)CCNS(=O)(=O)c2cccc3nonc23)cc1 | inconclusive: 4.47 µM [inhibitor, single point] | 
COc1ccc(OC)c(N/C(C)=C/C(=O)c2ccc(Br)cc2)c1 | inconclusive: 11.2 µM [inhibitor, single point] | 
COc1cc(CNCCc2ccc(S(N)(=O)=O)cc2)ccc1OCC(=O)NC(C)(C)C | inconclusive: 1.26 µM [activator, single point] | 
CCOC(=O)N1CCC(n2c(SCC(=O)NCCC3=CCCCC3)nc3ccccc3c2=O)CC1 | inconclusive: 35.5 µM [inhibitor, single point] | 
C/C(=C\C(=O)c1ccc(C)cc1)Nc1cccc(O)c1 | inconclusive: 10 µM [inhibitor, partial curve, poor fit] | 
CC1(C)Cc2c(C#N)c(SCc3ccccc3)nc(N3CCOCC3)c2CO1 | inconclusive: 10 µM [inhibitor, single point] | 
O=c1oc2ccccc2nc1/C=C(O)/C=C/c1ccc(F)cc1 | inactive | 
O=C(c1ccc(S(=O)(=O)c2cccc(Cl)c2)c([N+](=O)[O-])c1)N1CCN(Cc2ccccc2)CC1 | inconclusive: 35.5 µM [inhibitor, single point] | 
Cn1c(=O)n(C)c2cc(NC(=O)CCl)ccc21 | inconclusive: 35.5 µM [inhibitor, single point] | 
